Source: patent US20110064746A1 (published 2011)
These are yes or no findings as the source states them, for the method shown. In cells and extracts the contact can be indirect. Here binding means that the protein was enriched with, or labelled near, the bait; the list need not be complete.

Amino acid sequences for entries named in this document (tags omitted). Residues count along the entry.
UniProt P63158: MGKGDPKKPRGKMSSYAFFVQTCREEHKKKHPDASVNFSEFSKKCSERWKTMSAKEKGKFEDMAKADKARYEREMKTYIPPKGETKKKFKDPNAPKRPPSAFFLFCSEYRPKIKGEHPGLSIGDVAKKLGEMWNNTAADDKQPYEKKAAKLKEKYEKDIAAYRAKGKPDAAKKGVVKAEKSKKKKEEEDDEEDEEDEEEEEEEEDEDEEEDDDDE
UniProt P24807, residues 27-53: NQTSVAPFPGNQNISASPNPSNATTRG

Molecular target: mouse HMGB1 (mouse) (UniProt P63158)
Experiment: anti-CD24 immunoprecipitation of WT spleen lysates, EDTA elution, mass spectrometry (peptides of Table 1)

binding: binds
Substance: mouse CD24 (from UniProt P24807 27-53) (receptor)
